# Reference: patent US20250376532A1
# The chains behind the UniProt entries cited, without tags or fusion partners. Where a name states a change or a piece, a line headed by the entry shows the natural chain unless it says otherwise.
# UniProt O14763: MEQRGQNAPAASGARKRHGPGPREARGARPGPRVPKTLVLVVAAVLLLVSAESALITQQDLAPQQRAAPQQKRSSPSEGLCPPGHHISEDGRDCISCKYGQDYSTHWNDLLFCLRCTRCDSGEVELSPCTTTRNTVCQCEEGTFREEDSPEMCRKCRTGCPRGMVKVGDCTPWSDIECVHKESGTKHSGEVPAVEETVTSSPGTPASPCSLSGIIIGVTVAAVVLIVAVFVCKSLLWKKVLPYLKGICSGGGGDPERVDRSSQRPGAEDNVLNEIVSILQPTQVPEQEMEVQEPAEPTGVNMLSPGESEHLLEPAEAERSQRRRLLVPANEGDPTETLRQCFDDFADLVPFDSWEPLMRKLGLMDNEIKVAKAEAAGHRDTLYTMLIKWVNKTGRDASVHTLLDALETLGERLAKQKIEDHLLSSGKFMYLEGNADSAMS
# No constants are given. Whether binding was seen depends on the method and setting. Some binding calls cover weakened binding; strength is not graded here.
# Biological target: rDR5-IgG4 (recombinant wild type DR5 with IgG4 Fc) (human) (UniProt O14763)
# Test: ELISA against WT and PPCR-mutant DR5 (FIG. 5E)
binder,measurement,value
"antibody 1114 (antibody, V domains shown) VH: EVQLVQSGGGVERPGGSLRLSCAASGFTFDDYSMSWVRQAPGKGLEWVSGINWNGGSTAYADSVKGRVTISRDNAKNSLYLQMNSLRAEDTAVYYCAKILGAGRGWYFDAWGKGTTVTVSS VL: SSELTQDPAVSVALGQTVRITCQGDSLRSYYGSWYQQKPGQAPVLVIYGRNNRPSGIPDRFSGSSSGNTASLTITGAQAEDEADYYCNSKDSSGNHVVFGGGTKLTVL",binding,binds
